The other results are listed elsewhere or left out.
These sequences were tested against T1, OsSMF1 (Oryza sativa, UniProt Q6ZLB0 1-436) (assay: protein-binding microarray (RPBM); PBS, 2% BSA, 51.3 ng/ul salmon testes DNA, 50 uM zinc acetate, 200 nM TF, 25 C, 1 h; high values mean tight binding). Details: protein: recombinant; tags: N-terminal polyhistidine and DsRed monomer fusion (pET32a); chain copies: 2; label: CyDye5-dUTP incorporated in the synthesized complementary strand; 3' TTTTT single-stranded linker to array surface; dsDNA, one strand shown.
T1 sequence: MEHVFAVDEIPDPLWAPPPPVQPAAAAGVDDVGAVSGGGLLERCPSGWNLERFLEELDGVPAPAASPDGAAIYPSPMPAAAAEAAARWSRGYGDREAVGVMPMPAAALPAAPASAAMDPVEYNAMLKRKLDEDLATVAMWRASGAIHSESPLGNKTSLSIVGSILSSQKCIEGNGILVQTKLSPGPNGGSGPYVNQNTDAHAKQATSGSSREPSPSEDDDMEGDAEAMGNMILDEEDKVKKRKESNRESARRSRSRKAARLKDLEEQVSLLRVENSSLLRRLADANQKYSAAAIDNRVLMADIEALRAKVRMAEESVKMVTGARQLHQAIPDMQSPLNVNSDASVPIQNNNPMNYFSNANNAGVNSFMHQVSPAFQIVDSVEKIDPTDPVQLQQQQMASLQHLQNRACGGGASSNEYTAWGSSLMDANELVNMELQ
Procedure, shortened: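 Transcription factors, each fused N-terminally to a polyhistidine tag and DsRed, were expressed in E. coli BL21-CodonPlus and purified on Ni–NTA. A custom Agilent array was made double-stranded by primer extension with Cy5-dUTP and blocked with 2% BSA. It was incubated with 200 nM protein in PBS, 2% BSA, salmon testes DNA and 50 µM zinc acetate at 25 °C for 1 h, then washed. The binding signal is per-feature fluorescence intensity (arbitrary units) read on an Axon 4000B scanner.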

Sequence	binding signal
CGGCGGAGTGGCCGGCCGAGTGGGGATGCGGGGTGGCGCGCGGAGTCACCTAGTGCAG	3500 fluorescence intensity (a.u.)
CGGCCGTCCGCCCGAGATCTCCCTCTCCCACCGCGCGTTTCGGAGTCACCTAGTGCAG	3380 fluorescence intensity (a.u.)
AGAAGGGGAGAAAAGGAAACCGATCTCGGTCATGGCCACGCGGAGTCACCTAGTGCAG	50900 fluorescence intensity (a.u.)
GCATGCTCTCCGTGCCGTATGCGCTGTCGTAGGGCAGGTGCGGAGTCACCTAGTGCAG	3760 fluorescence intensity (a.u.)
CCCTGGCCCACCCGCGCCACCGTGGACGCCGCGCTTACCGCGGAGTCACCTAGTGCAG	4250 fluorescence intensity (a.u.)
CTACTTGATTAATCATAATAATATACTCAATCTTTGTTTTCGGAGTCACCTAGTGCAG	3800 fluorescence intensity (a.u.)
GGGCCCTTCGCCTCCACCTCCACCTCCACCTCCGCCGCGACGGAGTCACCTAGTGCAG	3690 fluorescence intensity (a.u.)
AATGGGGTTGGTCGTATCTATCGTAGGTGGATTATTTACCCGGAGTCACCTAGTGCAG	3470 fluorescence intensity (a.u.)
AATGGTGGGCCCCACGTGGACCCCACCTGTCATCCTCGCTCGGAGTCACCTAGTGCAG	7490 fluorescence intensity (a.u.)
TTGGATCACTCAATAAATTTAATGCATGTAACCGATAGGACGGAGTCACCTAGTGCAG	23600 fluorescence intensity (a.u.)
GATTCCGCAGAACAGTTCGAGTTGACCAATATTATATAGTCGGAGTCACCTAGTGCAG	20500 fluorescence intensity (a.u.)
TATAGATGGACTAAATCAACGTGCCACGTCAATGAAACTACGGAGTCACCTAGTGCAG	10500 fluorescence intensity (a.u.)
CTCCTTCATCTGATCTGTCACTGACATCGCGGGCCCACAACGGAGTCACCTAGTGCAG	7660 fluorescence intensity (a.u.)
TCCTCCTCCTCCTCAAACCCGTCGTCATCGTCGTCGTTGTCGGAGTCACCTAGTGCAG	5220 fluorescence intensity (a.u.)
GTATTACCTCAGCTGCAAAGGCTATACGTAGGCTGCGAGACGGAGTCACCTAGTGCAG	3220 fluorescence intensity (a.u.)
TAAATTTTAATTTTCTGATTGGTATGCCACGTTAGTGAAACGGAGTCACCTAGTGCAG	3420 fluorescence intensity (a.u.)
GCCCGTCGGTGAGTGGTGACTTGCCGTTTTCGCCAATAAACGGAGTCACCTAGTGCAG	6000 fluorescence intensity (a.u.)
TTAGCAGCCGCATCTCCAGACACAACCGATGTCATCAAGCCGGAGTCACCTAGTGCAG	3920 fluorescence intensity (a.u.)
TAAAATAGACTTATGTGCAATATAAAGGTTTTGATTATTTCGGAGTCACCTAGTGCAG	3440 fluorescence intensity (a.u.)
ACTTTCTGTATCTATATATACGTAAGCACGTCCTGATTCTCGGAGTCACCTAGTGCAG	3230 fluorescence intensity (a.u.)
ACGAGAAGTGACTCGCCTGACCGACCGAACCATCCGAAAGCGGAGTCACCTAGTGCAG	3410 fluorescence intensity (a.u.)

Sequence	binding signal
TTGTTAACCATCACTGCTGGGTATGCGTGGCTCAAAGGCTCGGAGTCACCTAGTGCAG	3290 fluorescence intensity (a.u.)
ATAAAGCTAGCAACAGGTATAGGCGATGTGTGTGCTTGACCGGAGTCACCTAGTGCAG	25500 fluorescence intensity (a.u.)
CAGCCTCTCGTTCAGGTTGACCATGACACGTTCAGGAACCCGGAGTCACCTAGTGCAG	4080 fluorescence intensity (a.u.)
CGCCGCGCACTCGTCGAACGTCATGTTCCCGACGAGCGTCCGGAGTCACCTAGTGCAG	3800 fluorescence intensity (a.u.)
GGATCGCCACATAATAATACCATCCCCTCCTCCCTCTCGTCGGAGTCACCTAGTGCAG	3140 fluorescence intensity (a.u.)
AGGTTGAGTTCAAACTTCAAAGCAGCACTACTTTCATACACGGAGTCACCTAGTGCAG	23100 fluorescence intensity (a.u.)
TGATGAGACAGGCATGGTTGATTGATGTGTGGACAAAGCTCGGAGTCACCTAGTGCAG	3350 fluorescence intensity (a.u.)
AAGCTTACAACATGTTCTATAATTTATTTAATTCTACAAACGGAGTCACCTAGTGCAG	45700 fluorescence intensity (a.u.)
TATCACGCTGGGACTGGTAGAATCTGATACTGATAGTTGTCGGAGTCACCTAGTGCAG	4320 fluorescence intensity (a.u.)
ACCTTGGCCTGTTAAGTGCACAAGGCCCATGTGGCATGCCCGGAGTCACCTAGTGCAG	4440 fluorescence intensity (a.u.)
GTGCACACTTGTACTTGTCATTGTACGTATTTTCGTCATGCGGAGTCACCTAGTGCAG	4130 fluorescence intensity (a.u.)
AGCAAGTAGAGTACACTGCATTGGTGTTGGGAAAATGGGACGGAGTCACCTAGTGCAG	20100 fluorescence intensity (a.u.)
TCTTATGTCAATTAGACCAAAGGGATGGATATTAAATGATCGGAGTCACCTAGTGCAG	30200 fluorescence intensity (a.u.)
GCCTCTCAACTGCACCAGCTAATTCAGTCATCGTAAAGGACGGAGTCACCTAGTGCAG	3240 fluorescence intensity (a.u.)
AGCGGAGTGGCCACTGTCAGCATGACCTCAAGCATCTTTTCGGAGTCACCTAGTGCAG	4460 fluorescence intensity (a.u.)
GTTTTGAACCCAGTAGAGTCAGCAGAGAGCATCTCGACAACGGAGTCACCTAGTGCAG	3380 fluorescence intensity (a.u.)
TAACCTGGGGTTCTCCATCGGCACGCTGCAGTACGTGGTGCGGAGTCACCTAGTGCAG	4760 fluorescence intensity (a.u.)
ACACACACACACACATATACATACCTATATCAACCTAATTCGGAGTCACCTAGTGCAG	3330 fluorescence intensity (a.u.)
GCTGATAACGTGTTGAATGTGGATAGAATTGATTGAGCGACGGAGTCACCTAGTGCAG	4520 fluorescence intensity (a.u.)
CCGGCGAGAATAGCCAAGAACGCGACGCGACCACACCCAACGGAGTCACCTAGTGCAG	3220 fluorescence intensity (a.u.)
AAAAGATGATGTCATTTCGTTACTACTCCCTTTGTCCTAGCGGAGTCACCTAGTGCAG	18600 fluorescence intensity (a.u.)

Sequence	binding signal
TCCCCAGTCGCGGCCGGAGCCGACGTCGTCCCCATCCGCTCGGAGTCACCTAGTGCAG	3970 fluorescence intensity (a.u.)
CAGGGAGTCGTCGTCACGGCTGCCATGCGGCAGAGCCCCTCGGAGTCACCTAGTGCAG	3560 fluorescence intensity (a.u.)
CATGTTGACTCTGTTTAATTCCACATCGTCTTCCTTGATCCGGAGTCACCTAGTGCAG	3220 fluorescence intensity (a.u.)
ACGACTCAGCCCCACCGCGCCGCCTCCGACTCCACCCCATCGGAGTCACCTAGTGCAG	11700 fluorescence intensity (a.u.)
ATCAACAAATATCATTTGCATCGCAAGAGTTGTTGAAAGTCGGAGTCACCTAGTGCAG	32200 fluorescence intensity (a.u.)
GGGCGAGCTCCCGCTTCTCCCCACCTGCTTCCCCGCCGCCCGGAGTCACCTAGTGCAG	3440 fluorescence intensity (a.u.)
CAAGATAATGCCCTCCGCTAAGAGCTAAATCCATATGTCACGGAGTCACCTAGTGCAG	3340 fluorescence intensity (a.u.)
CCCATACCCAAAGGCACGTGACGTGGACCGGACGCGTCCGCGGAGTCACCTAGTGCAG	18600 fluorescence intensity (a.u.)
AACTATAAACTTCGGTTCGACAGTTCGGCACTCGACAATCCGGAGTCACCTAGTGCAG	5190 fluorescence intensity (a.u.)
TTGCTATGTATGGGTATTGCTCTGTATCATGTGGGTACAACGGAGTCACCTAGTGCAG	3330 fluorescence intensity (a.u.)
GATGGACACTAGCTAGCACCATCGGCCGTGCCGCGACGGACGGAGTCACCTAGTGCAG	9610 fluorescence intensity (a.u.)
CATAAGGCATAAATGCTGAATCATTGTGCTGAAGCTGAACCGGAGTCACCTAGTGCAG	4080 fluorescence intensity (a.u.)
TTTTAATTTCATAAATATTCAACAATTAAAACTAGATTTGCGGAGTCACCTAGTGCAG	3300 fluorescence intensity (a.u.)
TTGGCGTGACTAGGCGCAATTTCTGCAAATTGGAGCTCGGCGGAGTCACCTAGTGCAG	7820 fluorescence intensity (a.u.)
CGTGCTCGACCACGCCGGCTCGCCGGCGCGCCGCACCGACCGGAGTCACCTAGTGCAG	3360 fluorescence intensity (a.u.)
TATTTGACTAGTCATGCAATATCTCTAGTGACTATACAAGCGGAGTCACCTAGTGCAG	3470 fluorescence intensity (a.u.)
CCTTGCCACGGTGGGCCGGCTCGGCATGGCCCGATCTAATCGGAGTCACCTAGTGCAG	3190 fluorescence intensity (a.u.)
ACTCGGAGATCTGTGCAAGATGATCATGCACGATATGATCCGGAGTCACCTAGTGCAG	3190 fluorescence intensity (a.u.)
ATAGTTAATTAATGATGCATTAGAAGCCTTAGTAGATTGGCGGAGTCACCTAGTGCAG	27100 fluorescence intensity (a.u.)
AATTTTCATATGCATCATGCTGCACGTGGATCAGAAGCACCGGAGTCACCTAGTGCAG	3570 fluorescence intensity (a.u.)
TTCCTCCAGGTCACCTCCTCCCCTCTCGCTGACTGCGGGACGGAGTCACCTAGTGCAG	5680 fluorescence intensity (a.u.)

Sequence	binding signal
TGTGACACGATTTTGCAGTCCACACGAACAGGCCCATCTGCGGAGTCACCTAGTGCAG	3560 fluorescence intensity (a.u.)
GATGAGCTCGTCCACCACGTCGACGCCCCGTCGGTGTGTCCGGAGTCACCTAGTGCAG	8050 fluorescence intensity (a.u.)
CCAAGCACTAATCACGATTAGCCTTCTGACTAATCACACTCGGAGTCACCTAGTGCAG	5430 fluorescence intensity (a.u.)
TAGTACGCTCGGTTCGTGGAACCCCACTCTCCAATCCCCACGGAGTCACCTAGTGCAG	3480 fluorescence intensity (a.u.)
TCCCCTCACGGTGGCGTGACATGCACCAATCTCGCCCCAACGGAGTCACCTAGTGCAG	3380 fluorescence intensity (a.u.)
AGCCACCTCTCTCTCTCCTATCGTTTTGACCACAGAAACCCGGAGTCACCTAGTGCAG	3210 fluorescence intensity (a.u.)
CCGGCCCACGTCAGCCTGCCGCGCCTACCGTTGACTCTCCCGGAGTCACCTAGTGCAG	20100 fluorescence intensity (a.u.)
AATGGCATGCACGTGCTTAATTAATTCCCATTTGCATGTTCGGAGTCACCTAGTGCAG	3500 fluorescence intensity (a.u.)
GTCATGGATCAAATCATCATGTATATCATCCGTCGTCGTGCGGAGTCACCTAGTGCAG	3180 fluorescence intensity (a.u.)
GCCACAAAGCACTCAAATACTTCCTTCAATCATAAATATTCGGAGTCACCTAGTGCAG	3310 fluorescence intensity (a.u.)
CTACTGCCTTTGGTGCATAGTATACACTGCACACACTTAACGGAGTCACCTAGTGCAG	3630 fluorescence intensity (a.u.)
AACATATCTATGAGAATATCTGTTGTTAACAGCTGTGCGTCGGAGTCACCTAGTGCAG	3490 fluorescence intensity (a.u.)
AAATCTGGGCCGCTGCTCTCGAATCTTTCTTTTCCTTTCCCGGAGTCACCTAGTGCAG	3630 fluorescence intensity (a.u.)
CAACTTGCTGGCTATAAAACAACCACATCATCTATATCCCCGGAGTCACCTAGTGCAG	4810 fluorescence intensity (a.u.)
AGCTTCAAGATGGTTCTAGAGTGTCACTGAGATGCCTGAACGGAGTCACCTAGTGCAG	13200 fluorescence intensity (a.u.)
GCTCAAGCTCCGTCACTGTAAAAGTATCCTGTATCCAATGCGGAGTCACCTAGTGCAG	35500 fluorescence intensity (a.u.)
CTATCCCATCGTCGCATCGAGCCAACGTAGCCGCCACGTTCGGAGTCACCTAGTGCAG	34400 fluorescence intensity (a.u.)
TATATATATATCACCAATCAAACCTGGCCAAACTTGCTTGCGGAGTCACCTAGTGCAG	3320 fluorescence intensity (a.u.)
GTTTAGAAACCAGGTCATTTGTATCTTGACGATCAACTGGCGGAGTCACCTAGTGCAG	3680 fluorescence intensity (a.u.)
TCGGTTGGTCGATTTTCGGCTGACCGGGCATACCATCTTGCGGAGTCACCTAGTGCAG	3670 fluorescence intensity (a.u.)
CCGCCACCCACTCGCGACCCGCCACGTGTGCAGGACCTGGCGGAGTCACCTAGTGCAG	18700 fluorescence intensity (a.u.)

No new results follow: an excerpt of the list.
Sequence	binding signal
CCGGCCCACGTCAGCCTGCCGCGCCTACCGTTGACTCTCCCGGAGTCACCTAGTGCAG	20100 fluorescence intensity (a.u.)
AATGGCATGCACGTGCTTAATTAATTCCCATTTGCATGTTCGGAGTCACCTAGTGCAG	3500 fluorescence intensity (a.u.)
GTCATGGATCAAATCATCATGTATATCATCCGTCGTCGTGCGGAGTCACCTAGTGCAG	3180 fluorescence intensity (a.u.)
GCCACAAAGCACTCAAATACTTCCTTCAATCATAAATATTCGGAGTCACCTAGTGCAG	3310 fluorescence intensity (a.u.)
CTACTGCCTTTGGTGCATAGTATACACTGCACACACTTAACGGAGTCACCTAGTGCAG	3630 fluorescence intensity (a.u.)
AACATATCTATGAGAATATCTGTTGTTAACAGCTGTGCGTCGGAGTCACCTAGTGCAG	3490 fluorescence intensity (a.u.)
AAATCTGGGCCGCTGCTCTCGAATCTTTCTTTTCCTTTCCCGGAGTCACCTAGTGCAG	3630 fluorescence intensity (a.u.)
CAACTTGCTGGCTATAAAACAACCACATCATCTATATCCCCGGAGTCACCTAGTGCAG	4810 fluorescence intensity (a.u.)
AGCTTCAAGATGGTTCTAGAGTGTCACTGAGATGCCTGAACGGAGTCACCTAGTGCAG	13200 fluorescence intensity (a.u.)
